No constants are given. Whether binding was seen depends on the method and setting. In cells and extracts the contact can be indirect. Some binding calls cover weakened binding; strength is not graded here.
Molecular target: Signal transducer and activator of transcription 3 (STAT3) (mouse (endogenous in primary astrocytes of C57BL/6 mice)) (UniProt P42227)
Experiment: co-IP; nuclear protein extracts of primary astrocytes after OGD (vehicle, Sino 1 mM, Sino with scramble, DRD2 or CRYAB siRNA) precipitated with a STAT3 antibody on Protein A/G PLUS-Agarose; Western blot with STAT3, p-STAT3 and CRYAB antibodies

Chains of the proteins cited; added tags and fusions are not shown.
UniProt P42227: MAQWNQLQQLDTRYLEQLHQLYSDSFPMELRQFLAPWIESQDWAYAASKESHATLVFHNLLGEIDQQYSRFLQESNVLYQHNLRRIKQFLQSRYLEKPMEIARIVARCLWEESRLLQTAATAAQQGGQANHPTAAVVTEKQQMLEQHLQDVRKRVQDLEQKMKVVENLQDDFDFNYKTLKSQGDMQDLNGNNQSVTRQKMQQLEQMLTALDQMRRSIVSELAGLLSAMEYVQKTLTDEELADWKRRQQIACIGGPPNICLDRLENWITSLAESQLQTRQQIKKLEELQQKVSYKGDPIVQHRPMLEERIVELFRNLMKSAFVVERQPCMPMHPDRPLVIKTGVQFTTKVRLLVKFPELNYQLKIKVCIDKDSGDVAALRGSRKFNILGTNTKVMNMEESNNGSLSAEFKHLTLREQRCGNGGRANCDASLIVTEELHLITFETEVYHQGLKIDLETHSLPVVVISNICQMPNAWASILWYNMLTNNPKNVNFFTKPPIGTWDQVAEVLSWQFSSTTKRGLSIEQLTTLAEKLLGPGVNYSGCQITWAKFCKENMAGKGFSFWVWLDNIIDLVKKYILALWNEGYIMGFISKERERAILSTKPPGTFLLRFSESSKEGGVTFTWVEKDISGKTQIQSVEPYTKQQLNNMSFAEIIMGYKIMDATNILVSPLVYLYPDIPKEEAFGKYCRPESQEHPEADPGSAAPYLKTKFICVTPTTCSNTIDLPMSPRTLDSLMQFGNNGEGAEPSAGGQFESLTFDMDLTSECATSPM

B1: αB-crystallin (CRYAB) (protein, UniProt P23927 1-175)
chain: MDIAIHHPWIRRPFFPFHSPSRLFDQFFGEHLLESDLFSTATSLSPFYLRPPSFLRAPSWIDTGLSEMRLEKDRFSVNLDVKHFSPEELKVKVLGDVIEVHGKHEERQDEHGFISREFHRKYRIPADVDPLTITSSLSSDGVLTVNGPRKQVSGPERTIPITREEKPAVAAAPKK
In the case of B1, the binding is reported as “binds”.
